Residue numbers refer to the chain shown, from its start. No constants are given. Whether binding was seen depends on the method and setting. For part of these data: Binding can be weak; no strength is given. Where a sequence is shown, tags or fusion partners need not be part of it.
What was measured:
[1] = target: microtubules made from purified wild-type yeast tubulin (Saccharomyces cerevisiae); assay: co-sedimentation; microtubule binding spin-down assay with yeast tubulin polymerized at 30 °C, experiment carried out at 30 °C; anti-tubulin and anti-CGN western blot; both purified
[2] = target: taxol-stabilized microtubules (polymerized tubulin); assay: co-sedimentation; microtubule binding spin-down assay: 20 μl taxol-stabilized microtubules (0.5 mg/ml) with 2 μg test protein and 40 μg BSA in 200 μl 80 mM PIPES pH 7.0, 2 mM MgCl2, 0.5 mM EGTA, 30 min; spun at 100,000g through a 60% glycerol cushion; both purified
[3] = target: subtilisin-digested microtubules (C-terminal tails cleaved); assay: as above

B1: GST-CGN(1-406) (domain or fragment, UniProt Q9P2M7 1-406)
chain: MEQAPNMAEPRGPVDHGVQIRFITEPVSGAEMGTLRRGGRRPAKDARASTYGVAVRVQGIAGQPFVVLNSGEKGGDSFGVQIKGANDQGASGALSSDLELPENPYSQVKGFPAPSQSSTSDEEPGAYWNGKLLRSHSQASLAGPGPVDPSNRSNSMLELAPKVASPGSTIDTAPLSSVDSLINKFDSQLGGQARGRTGRRTRMLPPEQRKRSKSLDSRLPRDTFEERERQSTNHWTSSTKYDNHVGTSKQPAQSQNLSPLSGFSRSRQTQDWVLQSFEEPRRSAQDPTMLQFKSTPDLLRDQQEAAPPGSVDHMKATIYGILREGSSESETSVRRKVSLVLEKMQPLVMVSSGSTKAVAGQGELTRKVEELQRKLDEEVKKRQKLEPSQVGLERQLEEKTEECSRL
binding [1]: binds | binding [2]: binds | binding [3]: no binding (tested: 2 μg test protein in 200 μl)

B2: CGN-M1 (R36/37A) (domain or fragment, UniProt Q9P2M7 1-406)
chain: B1 chain with R36A, R37A
binding [2]: binds

B3: CGN-M2 (R40/41A) (domain or fragment, UniProt Q9P2M7 1-406)
chain: B1 chain with R40A, R41A
binding [2]: binds

B4: GST-CGN(1015-1203) (domain or fragment, UniProt Q9P2M7 1015-1203)
chain: DLECDKISLERQNKDLKTRLASSEGFQKPSASLSQLESQNQLLQERLQAEEREKTVLQSTNRKLERKVKELSIQIEDERQHVNDQKDQLSLRVKALKRQVDEAEEEIERLDGLRKKAQREVEEQHEVNEQLQARIKSLEKDSWRKASRSAAESALKNEGLSSDEEFDSVYDPSSIASLLTESNLQTSSC
binding [2]: no binding (tested: 2 μg test protein in 200 μl)

Reference: PMC4976216
